Reference: patent US20200055918A1, “NOVEL MINOR HISTOCOMPATIBILITY ANTIGENS AND USES THEREOF” (UNIVERSITÉ DE MONTRÉAL, priority 2017, published 2020)

What was measured:
Design in all cases: species or system human
[1] = test system: MiHA-coding genes in AML samples; assay: Expression (RPKM) of MiHA-coding genes in 179 AML samples, TCGA RNA-Seq; conditions: mean MiHA gene expression in primary AML samples from TCGA
[2] = test system: genes coding for the identified MiHAs; assay: Ratio of MiHA gene expression in bone marrow compared to skin, public RNA-Seq data; conditions: relative BM/skin expression of the MiHA-coding transcripts
B-LCL cells = assay: MiHA detection by LC-MS/MS after peptide isolation by immunoprecipitation (IP, W6/32); conditions: first symbol of IP/MAE

Substance	AMLs (RPKM) [1]	BM/skin ratio [2]	IP (identified by immunoprecipitation) (B-LCL cells)	BM/skin ratio ([2]; listed as ZWINT-1G/R)	BM/skin ratio ([2]; listed as RASSF1-1A/S)
RPPG/EGSGPLL/H/R/P (RPPGGSGPLL) [MiHA No. 58]	25.51 RPKM	4.42	–	–	–
EEIPV/ISSHY (EEIPVSSHY) [MiHA No. 20]	10.41 RPKM	18.27	–	–	–
GED/GKGIKAL (GEDKGIKAL) [MiHA No. 29]	19.89 RPKM	4.27	–	–	–
LENGAH/RAY (LENGAHAY) [MiHA No. 41]	34.42 RPKM	2.52	–	–	–
LRIQ/HQREQL (LRIQQREQL) [MiHA No. 44]	31.03 RPKM	8.07	–	–	–
GRA/EGIVARL (GRAGIVARL) [MiHA No. 30]	15.09 RPKM	2.66	–	–	–
RANLRAT/A/NKL (RANLRATKL) [MiHA No. 56]	28.06 RPKM	5.21	–	–	–
MPSHLRNT/ILLM (MPSHLRNTLLM) [MiHA No. 46]	34.04 RPKM	3.64	–	–	–
R/GIFASRLYY (RIFASRLYY) [MiHA No. 55]	1.61 RPKM	13.73	–	–	–
SPGK/NERHLNAL (126)	–	–	✓	–	–
APRPFGSVF/S [MiHA No. 11]	5.47 RPKM	2.00	–	–	–
VEEADGN/HKQW (VEEADGNKQW) [MiHA No. 78]	13.41 RPKM	2.06	–	–	–
EELLAVG/SKF [MiHA No. 22]	19.89 RPKM	4.27	–	–	–
GTLSPSLGNSSI/VLK (GTLSPSLGNSSILK) [MiHA No. 31]	28.38 RPKM	2.42	–	–	–
TPRPIQSSP/L (102)	–	–	✓	–	–
AQTARQP/HPK (AQTARQPPK) [MiHA No. 13]	0.37 RPKM	11.00	–	–	–
KEFEDD/GIINW [MiHA No. 34]	9.83 RPKM	292.97	–	–	–
YYRTNHT/I/SVM (104)	–	–	✓	–	–
SVSKLST/NPK (SVSKLSTPK) [MiHA No. 69]	16.59 RPKM	2.16	–	–	–
RTA/TDNFDDILK [MiHA No. 61]	36.60 RPKM	2.28	–	–	–
RPPPP/SPAWL (RPPPPPAWL) [MiHA No. 59]	17.23 RPKM	2.17	–	–	–
AAQTARQP/HPK (AAQTARQPPK) [MiHA No. 3]	0.37 RPKM	11.00	–	–	–

Substance	AMLs (RPKM) [1]	BM/skin ratio [2]	IP (identified by immunoprecipitation) (B-LCL cells)	BM/skin ratio ([2]; listed as ZWINT-1G/R)	BM/skin ratio ([2]; listed as RASSF1-1A/S)
S/GEMDRRNDAW (123)	–	–	✓	–	–
EEADGN/HKQWW (EEADGNKQWW) [MiHA No. 17]	13.41 RPKM	2.06	–	–	–
S/YGGPLRSEY (107)	–	–	✓	–	–
EEINLQR/INI (EEINLQRNI) [MiHA No. 19]	6.09 RPKM	–	–	–	–
EE/GRGENTSY (EERGENTSY) [MiHA No. 16]	7.48 RPKM	9.49	–	–	–
LPRVC/RGTTL (LPRVCGTTL) [MiHA No. 42]	0.372 RPKM	11.00	–	–	–
SRVLQN/KVAF (SRVLQNVAF) [MiHA No. 68]	9.83 RPKM	292.97	–	–	–
EEALGLYH/QW (EEALGLYHW) [MiHA No. 18]	41.48 RPKM	8.24	–	–	–
EEVTS/T/ASEDKRKTY (117)	–	–	✓	–	–
VYNNIMRH/RYL (VYNNIMRHYL) [MiHA No. 79]	7.46 RPKM	3.29	–	–	–
TPRNTYKMTSL/V [MiHA No. 73]	19.89 RPKM	5.16	–	–	–
QELDG/RVFQKL [MiHA No. 52]	16.48 RPKM	–	–	2.80 and 2.61	–
KY/HMTAVVKLF (KYMTAVVKLF) [MiHA No. 40]	54.37 RPKM	23.17	–	–	–
AELQS/APLAA (AELQSRLAA) [MiHA No. 7]	30.74 RPKM	2.59	–	–	–
SPRGN/KLPLLL (SPRGNLPLLL) [MiHA No. 66]	12.69 RPKM	10.08	–	–	–
FT/R/IESRVSSQQTVSY (127)	–	–	✓	–	–
DRFVARK/R/M/TL (DRFVARKL) [MiHA No. 15]	8.60 RPKM	3.06	–	–	–
DRANRFEY/*L (DRANRFEYL) [MiHA No. 14]	35.80 RPKM	2.05	–	–	–
MPSHLRNT/ILL (MPSHLRNTLL) [MiHA No. 45]	34.04 RPKM	3.64	–	–	–
TVY/CHSPVSR (TVYHSPVSR) [MiHA No. 77]	22.00 RPKM	3.98	–	–	–
SQA/SEIEQKI (SQAEIEQKI) [MiHA No. 67]	49.38 RPKM	2.39	–	–	–
IYPQV/LLHSL (IYPQVLHSL) [MiHA No. 33]	36.60 RPKM	2.28	–	–	–

Substance	AMLs (RPKM) [1]	BM/skin ratio [2]	IP (identified by immunoprecipitation) (B-LCL cells)	BM/skin ratio ([2]; listed as ZWINT-1G/R)	BM/skin ratio ([2]; listed as RASSF1-1A/S)
KEINEKSN/SIL (KEINEKSNIL) [MiHA No. 35]	42.29 RPKM	3.49	–	–	–
T/PARPQSSAL (TARPQSSAL) [MiHA No. 70]	4.42 RPKM	5.81	–	–	–
APPAEKA/VPV (APPAEKAPV) [MiHA No. 8]	11.70 RPKM	22.47	–	–	–
KVKTSLNEQM/TY (KVKTSLNEQMY) [MiHA No. 38]	23.41 RPKM	3.82	–	–	–
QE/DLIGKKEY (QELIGKKEY) [MiHA No. 50]	40.82 RPKM	3.47	–	–	–
ELQA/SRLAAL (ELQARLAAL) [MiHA No. 25]	30.74 RPKM	2.07	–	–	–
TQR/SPADVIF (TQRPADVIF) [MiHA No. 76]	56.09 RPKM	3.08	–	–	–
KRVGASYER/W/G [MiHA No. 37]	23.59 RPKM	2.66	–	–	–
AE/AIQEKKEI (AEIQEKKEI) [MiHA No. 6]	3.14 RPKM	2.14	–	–	–
TLN/SERFTSY (TLNERFTSY) [MiHA No. 72]	51.39 RPKM	7.24	–	–	–
PPSGLRLLP/LL (PPSGLRLLPL) [MiHA No. 49]	114.06 RPKM	3.88	–	–	–
ESKIR/CVLL (ESKIRVLL) [MiHA No. 27]	7.33 RPKM	3.52	–	–	–
SESKIR/CVLL (SESKIRVLL) [MiHA No. 64]	7.33 RPKM	3.42	–	–	–
TAKQKLDPA/V [MiHA No. 71]	19.89 RPKM	5.16	–	–	–
YPRAGS/RKPP (YPRAGSKPP) [MiHA No. 80]	8.60 RPKM	3.06	–	–	–
EPQGS/FGRQGNSL (EPQGSGRQGNSL) [MiHA No. 26]	7.48 RPKM	9.49	–	–	–
QEN/DIQ/HNLQL (QENIQNLQL) [MiHA No. 51]	10.85 RPKM	3.33	–	–	–
A/SEIEQKIKEY [MiHA No. 2]	49.38 RPKM	–	–	–	2.54 and 2.39
PH/PRYRPGTVAL (PHRYRPGTVAL) [MiHA No. 48]	0.52 RPKM	5.62	–	–	–
KLYSEA/GKTK (KLYSEAKTK) [MiHA No. 36]	0.70 RPKM	81.00	–	–	–
TEAG/AVQKQW (108)	–	–	✓	–	–
EE/KEQSQSPW (EEEQSQSRW) [MiHA No. 24]	21.37 RPKM	5.49	–	–	–

Substance	AMLs (RPKM) [1]	BM/skin ratio [2]	IP (identified by immunoprecipitation) (B-LCL cells)	BM/skin ratio ([2]; listed as ZWINT-1G/R)	BM/skin ratio ([2]; listed as RASSF1-1A/S)
EEV/LKLRQQL (84)	–	–	✓	–	–
TPVDDR/SSL (TPVDDRSL) [MiHA No. 75]	7.21 RPKM	2.08	–	–	–
S/TVLKPGNSK [MiHA No. 62]	86.40 RPKM	3.16	–	–	–
NSEEHSAR/KY (NSEEHSARY) [MiHA No. 47]	36.86 RPKM	3.63	–	–	–
APRR/CPPPPP (APRRPPPPP) [MiHA No. 12]	32.22 RPKM	15.58	–	–	–
APREP/QFAHSL (APREPFAHSL) [MiHA No. 9]	4.03 RPKM	2.37	–	–	–
QENQDPR/GPW (QENQDPRRW) [MiHA No. 53]	8.74 RPKM	4.289	–	–	–
LPSKRVSL/I [MiHA No. 43]	19.89 RPKM	5.16	–	–	–
QERSFQEY/N [MiHA No. 54]	8.15 RPKM	2.24	–	–	–
KY/HMTAVVKL (KYMTAVVKL) [MiHA No. 39]	54.37 RPKM	23.17	–	–	–
YTDSSSI/VLNY (YTDSSSILNY) [MiHA No. 81]	10.92 RPKM	4.35	–	–	–
SEESAVPE/KPSW [MiHA No. 63]	15.83 RPKM	2.69	–	–	–
APRES/NAQAI (APRESAQAI) [MiHA No. 10]	19.89 RPKM	5.16	–	–	–
G/DPRPSPTRSV (GPRPSPTRSV) [MiHA No. 28]	2.97 RPKM	25.52	–	–	–
SPD/ESSTPKL (SPDSSTPKL) [MiHA No. 65]	4.03 RPKM	3.45	–	–	–
RPPG/EGSGPL (RPPGGSGPL) [MiHA No. 57]	25.51 RPKM	4.42	–	–	–
TPRPIQSSL/P [MiHA No. 74]	46.39 RPKM	6.85	–	–	–
RREDV/IVLGR (RREDVVLGR) [MiHA No. 60]	1.58 RPKM	1221.00	–	–	–
EEIPV/ISSHYF (EEIPVSSHYF) [MiHA No. 21]	10.41 RPKM	9.01	–	–	–
EESAVPE/KPSW [MiHA No. 23]	15.83 RPKM	2.69	–	–	–

“And” between values parts separate entries of the source, which are not always exact repeats. Equal values may be shown once. For part of these data: The expression values are mRNA levels of the gene; the protein chain is shown to identify it.
